# PubChem BioAssay AID1508588 | Peter MacCallum Cancer Centre, 2020
# Screen: 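Genome-wide search for knock-downs that heighten vemurafenib action in melanoma cells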 (primary screen)
# Cells: human WM266.4 melanoma cells (BRAF V600 mutant)
# Reagents: siRNA pool against human genes, 40 nM
# Time to read-out: 96 h from transfection to read-out
# Treatment: vemurafenib 300 nM (about IC25), added 48 h after transfection, for 48 h; comparison arm got DMSO vehicle only
# Measured: 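Ratios to non-targeting siRNA for cell gain, counted as DAPI nuclei after minus before drug and averaged over two replicates, and for absorbance-read medium lactate per cell; both binned into fold-change classes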
# Reading the numbers: cell gain with vemurafenib: higher = more cell gain than with non-targeting siRNA; lactate per cell with vemurafenib: higher = more lactate made per cell
# Call rule: 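Enhancement is called by pairing each knock-down's vehicle-arm and drug-arm fold-change classes for viability or glycolysis; which class combinations qualify is not given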
# Calls: active = enhances vemurafenib effect; inactive = no enhancement seen
# Here is one part, drawn at random, of about 18,000 reagents. 790 of them (4.4%) count as active. 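Calls rest on a combination of fold-change classes in drug and vehicle arms, not all shown here.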 Entries without a mark were called inactive.
Gene,cell gain with vemurafenib,lactate per cell with vemurafenib
CYP2W1 (cytochrome P450 family 2 subfamily W member 1),0.41,1.75
RHBDL2 (rhomboid like 2),0.6,1.01
RER1 (retention in endoplasmic reticulum sorting receptor 1),0.52,0.88
ADGRL2 (adhesion G protein-coupled receptor L2),0.15,2.47
UBE2C (ubiquitin conjugating enzyme E2 C),0.69,1.2
PDE8A (phosphodiesterase 8A),0.33 (active),0.07
POLR1G (RNA polymerase I subunit G),0.32,1.25
C16orf54 (chromosome 16 open reading frame 54),0.36,1.16
KRT78 (keratin 78),0.3,1.32
GALT (galactose-1-phosphate uridylyltransferase),0.8,0.59
ANAPC2 (anaphase promoting complex subunit 2),0.61,1.12
MTARC2 (mitochondrial amidoxime reducing component 2),0.79,0.6
CBFB (core-binding factor subunit beta),0.93,0.93
SGSM3 (small G protein signaling modulator 3),0.77,0.44
SYTL2 (synaptotagmin like 2),0.06,2.16
NYAP1,1.12,0.71
CIB1 (calcium and integrin binding 1),0.15,2.44
AUNIP (aurora kinase A and ninein interacting protein),0.69,0.46
ROBO4 (roundabout guidance receptor 4),0.43,1.37
CYB5R4 (cytochrome b5 reductase 4),0.32,1.68
APPL1,0.26,1.71
"DARS2 (aspartyl-tRNA synthetase 2, mitochondrial)",0.99,0.55
SMPDL3B (sphingomyelin phosphodiesterase acid like 3B),0.78,0.96
C19orf73 (chromosome 19 open reading frame 73),0.61,1.01
LRRC37A (leucine rich repeat containing 37A),0.3,1.01
HOATZ (HOATZ cilia and flagella associated protein),0.66 (active),0.42
AQR (aquarius intron-binding spliceosomal factor),0.05,0.97
ICAM5 (intercellular adhesion molecule 5),0.03,1.18
"ITPR2 (inositol 1,4,5-trisphosphate receptor type 2)",0.48 (active),0.47
BRS3 (bombesin receptor subtype 3),0.82,0.79
AMBN (ameloblastin),0.57,1.32
ATP2C2 (ATPase secretory pathway Ca2+ transporting 2),0.59,0.86
ERGIC2 (ERGIC and golgi 2),0.5,1.77
LIAT1 (ligand of ATE1),0.78,0.6
RAI14 (retinoic acid induced 14),0.71,0.81
OPN4 (opsin 4),0.89,1.01
DNAAF19 (dynein axonemal assembly factor 19),0.24,2.87
DCAKD (dephospho-CoA kinase domain containing),0.11,1.82
PPP1R3D (protein phosphatase 1 regulatory subunit 3D),0.59,1.58
DENND5A (DENN domain containing 5A),0.51,1.21
FRAT1 (FRAT regulator of Wnt signaling pathway 1),0.82,0.68
OR51Q1 (olfactory receptor family 51 subfamily Q member 1),0.25,0.48
OR2T33 (olfactory receptor family 2 subfamily T member 33),0.39,0.27
CACUL1 (CDK2 associated cullin domain 1),1.02,0.67
ARL14 (ARF like GTPase 14),-0.11 (active),0.16
CHRND (cholinergic receptor nicotinic delta subunit),0.93,0.63
SRSF12 (serine and arginine rich splicing factor 12),0.7,0.92
SPECC1L,0.69,0.36
RELN (reelin),0.82,1.03
SCNN1B (sodium channel epithelial 1 subunit beta),0.67,1.8
APBA3 (amyloid beta precursor protein binding family A member 3),0.22,2.15
ZNF772 (zinc finger protein 772),0.07,3.94
SLC25A21,0.55 (active),0.32
"RNPC3 (RNA binding region (RNP1, RRM) containing 3)",0.53,0.81
DUSP8 (dual specificity phosphatase 8),0.5,0.91
ALDH16A1 (aldehyde dehydrogenase 16 family member A1),0.47,1.22
GABRA2 (gamma-aminobutyric acid type A receptor subunit alpha2),0.98,0.6
"LIPG (lipase G, endothelial type)",1.01,0.63
ETF1 (eukaryotic translation termination factor 1),0.32,1.42
DUSP26 (dual specificity phosphatase 26),0.39,0.32
CD200 (CD200 molecule),0.28,0.55
RNF175 (ring finger protein 175),0.7,0.36
CELA2A (chymotrypsin like elastase 2A),0.58 (active),0.3
TSEN15 (tRNA splicing endonuclease subunit 15),0.33,2.27
CDH15 (cadherin 15),0.52,1.16
SMPD1 (sphingomyelin phosphodiesterase 1),0.47,0.42
HNF1A (HNF1 homeobox A),0.03,1.29
EIF2A (eukaryotic translation initiation factor 2A),0.5,1.7
ISCA1 (iron-sulfur cluster assembly 1),1.08,1.76
CHURC1 (churchill domain containing 1),0.86 (active),0.48
CKAP2 (cytoskeleton associated protein 2),1.1,0.94
FER (FER tyrosine kinase),0.67,0.56
BCL2L1 (BCL2 like 1),0.79,1.75
COPS6 (COP9 signalosome subunit 6),0.52,2.12
UBXN1 (UBX domain protein 1),0.77,0.96
CYB5R3 (cytochrome b5 reductase 3),0.66,0.26
PDXDC1 (pyridoxal dependent decarboxylase domain containing 1),0.57,0.97
CT47A5 (cancer/testis antigen family 47 member A5),0.67,0.66
SFXN3 (sideroflexin 3),0.03 (active),0.2
GPX8 (glutathione peroxidase 8 (putative)),0.57,1.72
RBFOX2 (RNA binding fox-1 homolog 2),-0.02,1.64
LYPD6B (LY6/PLAUR domain containing 6B),0.91,0.8
PCNX1 (pecanex 1),0.28,1.02
KIAA1586,0.39,1.19

Laid out differently: 9 of the entries above
Gene	cell gain with vemurafenib	lactate per cell with vemurafenib
SGSM3 (small G protein signaling modulator 3)	0.77	0.44
SYTL2 (synaptotagmin like 2)	0.06	2.16
NYAP1	1.12	0.71
CIB1 (calcium and integrin binding 1)	0.15	2.44
AUNIP (aurora kinase A and ninein interacting protein)	0.69	0.46
ROBO4 (roundabout guidance receptor 4)	0.43	1.37
CYB5R4 (cytochrome b5 reductase 4)	0.32	1.68
APPL1	0.26	1.71
DARS2 (aspartyl-tRNA synthetase 2, mitochondrial)	0.99	0.55
